According to patent publication US4751215A, “Process for increasing the sexual activity of birds and useful domestic mammals and for preparing spermatozoa suitable to their propagation” (INNOFINANCE Altalanos Innovacios Penzintezet, priority 1985, dated 1988):
At least one peptide structure holds a part that was inferred or is arguable (an end, a ring closure or a residue). Peptide text beside a SMILES is read from it.

What was measured:
Assay type in all cases: in vivo
male arara parrots = assay: Enhancement of the sexual activity of male parrots; settings: 0.1 μg/kg every 3 days, 3 times
testosterone level = assay: Testosterone level of treated male turkeys (Table 3); settings: Treated (n = 15), animals earlier treated with D-Phe6-GnRH
Method: (§1) 0.5 μg/kg of D-Phe^6 -GnRH analogue was intramuscularly administered to sexually mature male turkeys every 2 days, altogether 3 times. On the 20th day following treatment, the sperm production reached an increase of 44% and remained at a higher level, as compared to the control, for about 1 month (FIG. 4).
(§2) One month and half after the first treatment, the same animals were similarly treated with 0.5 μg/kg of (Asp-α-diethylamide)^6,desGly^10 -GnRH ethylamide analogue every 2 days, altogether 3 times.
The rise of the LH level of the blood was followed by an increase in the testosterone level (Table 3).

male turkeys [1] = assay: Sperm production of male turkeys treated every 3 days (Table 4); settings: 0.5 μg/kg every 3 days, 3 times
male turkeys [2] = assay: Effect of gonadoliberin analogues on the sperm production of male turkeys (Table 5)
Source text: In a further experiment, the sperm production of male turkeys was raised by administering the following four compounds: […]

male turkeys [3] = assay: Permanent increase in sperm production of male turkeys bred on a large scale (Example 1, FIG. 4)
Method: as §1, §2

[4] = 0.5 μg/kg every 2 days, 3 times, same animals one month and half after first treatment with D-Phe6-GnRH

Q: For CCNC(=O)[C@@H]1CCCN1C(=O)[C@H](CCCNC(=N)N)NC(=O)[C@H](CC(C)C)NC(=O)C[C@H](NC(=O)[C@H](Cc1ccc(O)cc1)NC(=O)[C@H](CO)NC(=O)[C@H](Cc1c[nH]c2ccccc12)NC(=O)[C@H](Cc1c[nH]cn1)NC(=O)[C@@H]1CCC(=O)N1)C(=O)N(CC)CC [Compound "D", (Asp-α-diethylamide)^6,desGly^10 -GnRH ethylamide] (HELM PEPTIDE1{[Glp].H.W.S.Y.D.[CCN(CC)[*:1]]}|PEPTIDE2{L.R.P.[CCN[*:1]]}$PEPTIDE1,PEPTIDE2,6:R3-1:R1$$$V2.0), which “behaviour of the animals” value (male arara parrots) is on record?
A: characteristic ethological change (wooing)

Q: And the “increase in sexual activity” value (male arara parrots)?
A: repeated copulations

Q: What about the “penis of the animals” value (male arara parrots; sexually inactive male arara parrots) of the same compound?
A: significantly enlarged

Q: What about the Testosterone (testosterone level; sampling July 18) of the same compound?
A: 3.89 ± 1.34 ng/mL

Q: What about the Testosterone (testosterone level; sampling June 22) of the same compound?
A: 3.25 ± 1.11 ng/mL

Q: What about the Testosterone (testosterone level; sampling September 8) of the same compound?
A: 2.53 ± 1.00 ng/mL

Q: What about the Sperm (male turkeys [1]; sampling June 10) of the same compound?
A: 0.31 ± 0.07 ml/animal

Q: And the Sperm (male turkeys [1]; sampling May 17)?
A: 0.20 ± 0.06 ml/animal

Q: What about the Sperm (male turkeys [1]; sampling May 20) of the same compound?
A: 0.20 ± 0.09 ml/animal

Q: What about the Sperm (male turkeys [1]; sampling May 23) of the same compound?
A: 0.21 ± 0.05 ml/animal

Q: And the Sperm (male turkeys [1]; sampling May 30)?
A: 0.25 ± 0.07 ml/animal

Q: And the Sperm production (male turkeys [2]; after 30 days)?
A: 0.23 ml/animal

Q: What about the Sperm production (male turkeys [2]; after 60 days) of the same compound?
A: 0.33 ml/animal

Q: What about the Sperm production (male turkeys [2]; after 90 days) of the same compound?
A: 0.36 ml/animal

Q: And the Sperm production (male turkeys [2]; after 120 days)?
A: 0.34 ml/animal

Q: What about the Sperm production (male turkeys [2]; at the beginning of the experiment) of the same compound?
A: 0.20 ml/animal

Q: What about the “immediate increase in the sperm production” value (male turkeys [3]; [4]) of the same compound?
A: 45%

Q: What about the “time sperm production significantly higher as compared to the control” value (male turkeys [3]; [4]) of the same compound?
A: about 2 months

Q: What about the “number of the spermatozoa in unit volume” value (male turkeys [3]; FIG. 4, treated male turkeys) of the same compound?
A: significantly higher
